Measured values from the supplement of paper PMC10849652.
Some of the results follow.

Chains of the proteins cited; added tags and fusions are not shown. Lines headed by an entry give the natural chain unless they say otherwise; changes in a name come on top.
UniProt O14530: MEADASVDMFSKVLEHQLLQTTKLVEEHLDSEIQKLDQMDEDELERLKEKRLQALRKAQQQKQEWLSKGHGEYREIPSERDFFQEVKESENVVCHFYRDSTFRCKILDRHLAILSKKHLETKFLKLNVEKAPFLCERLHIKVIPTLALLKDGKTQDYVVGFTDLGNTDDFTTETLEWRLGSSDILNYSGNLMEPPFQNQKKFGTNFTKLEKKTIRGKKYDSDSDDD
UniProt Q712K3: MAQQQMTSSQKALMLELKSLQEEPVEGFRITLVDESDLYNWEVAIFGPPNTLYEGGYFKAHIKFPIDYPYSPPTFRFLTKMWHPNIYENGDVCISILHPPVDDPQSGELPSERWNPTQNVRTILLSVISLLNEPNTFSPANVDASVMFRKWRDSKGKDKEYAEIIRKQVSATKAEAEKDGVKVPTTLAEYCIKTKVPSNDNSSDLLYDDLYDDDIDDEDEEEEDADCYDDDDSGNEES
UniProt Q9Y385: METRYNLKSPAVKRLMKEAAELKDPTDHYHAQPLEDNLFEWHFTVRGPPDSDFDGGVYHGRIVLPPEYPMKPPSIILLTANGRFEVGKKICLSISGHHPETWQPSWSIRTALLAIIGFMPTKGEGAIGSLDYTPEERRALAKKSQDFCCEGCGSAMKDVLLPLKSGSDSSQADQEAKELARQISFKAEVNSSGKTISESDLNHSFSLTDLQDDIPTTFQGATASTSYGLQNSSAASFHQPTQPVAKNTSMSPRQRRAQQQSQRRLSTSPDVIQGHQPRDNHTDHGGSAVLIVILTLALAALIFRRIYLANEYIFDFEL
UniProt Q14139: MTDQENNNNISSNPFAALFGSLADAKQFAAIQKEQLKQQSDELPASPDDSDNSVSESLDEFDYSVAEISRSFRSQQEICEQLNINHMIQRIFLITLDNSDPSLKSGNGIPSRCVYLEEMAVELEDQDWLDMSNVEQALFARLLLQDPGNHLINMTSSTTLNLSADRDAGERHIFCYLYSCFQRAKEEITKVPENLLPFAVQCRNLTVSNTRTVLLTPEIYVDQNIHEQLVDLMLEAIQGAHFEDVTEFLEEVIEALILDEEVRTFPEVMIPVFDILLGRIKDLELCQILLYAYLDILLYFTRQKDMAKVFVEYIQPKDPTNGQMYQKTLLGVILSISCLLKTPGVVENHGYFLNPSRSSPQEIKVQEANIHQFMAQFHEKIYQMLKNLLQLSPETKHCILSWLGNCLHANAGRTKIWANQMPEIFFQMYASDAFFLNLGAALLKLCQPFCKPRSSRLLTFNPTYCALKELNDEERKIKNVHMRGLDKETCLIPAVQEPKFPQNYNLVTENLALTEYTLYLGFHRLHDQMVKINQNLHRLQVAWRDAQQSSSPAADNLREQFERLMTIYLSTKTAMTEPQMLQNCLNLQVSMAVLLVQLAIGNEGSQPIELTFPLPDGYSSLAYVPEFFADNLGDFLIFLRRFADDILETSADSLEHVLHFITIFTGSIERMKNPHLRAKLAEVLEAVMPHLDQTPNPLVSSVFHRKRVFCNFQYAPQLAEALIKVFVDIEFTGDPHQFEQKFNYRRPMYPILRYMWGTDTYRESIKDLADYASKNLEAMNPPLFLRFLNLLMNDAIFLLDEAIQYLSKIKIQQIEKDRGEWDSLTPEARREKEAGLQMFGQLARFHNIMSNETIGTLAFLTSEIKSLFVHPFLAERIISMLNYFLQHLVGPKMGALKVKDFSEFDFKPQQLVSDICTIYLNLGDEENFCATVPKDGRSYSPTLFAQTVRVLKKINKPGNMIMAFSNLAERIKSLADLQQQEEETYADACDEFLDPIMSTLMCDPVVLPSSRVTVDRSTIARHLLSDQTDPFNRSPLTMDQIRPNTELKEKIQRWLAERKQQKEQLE
UniProt Q8NBS9: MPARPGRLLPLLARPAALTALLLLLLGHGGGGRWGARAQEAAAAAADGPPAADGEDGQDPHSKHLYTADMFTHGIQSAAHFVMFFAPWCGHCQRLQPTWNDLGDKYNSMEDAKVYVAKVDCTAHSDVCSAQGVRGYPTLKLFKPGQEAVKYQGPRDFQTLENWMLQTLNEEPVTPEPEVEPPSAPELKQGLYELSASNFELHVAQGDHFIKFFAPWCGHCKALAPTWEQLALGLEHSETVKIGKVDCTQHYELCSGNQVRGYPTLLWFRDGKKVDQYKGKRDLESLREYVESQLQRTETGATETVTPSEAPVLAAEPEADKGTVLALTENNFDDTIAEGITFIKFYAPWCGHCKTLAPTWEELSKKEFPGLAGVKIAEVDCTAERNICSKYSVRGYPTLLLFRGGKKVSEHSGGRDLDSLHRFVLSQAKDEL
UniProt Q9UMX0, whole entry, looked up: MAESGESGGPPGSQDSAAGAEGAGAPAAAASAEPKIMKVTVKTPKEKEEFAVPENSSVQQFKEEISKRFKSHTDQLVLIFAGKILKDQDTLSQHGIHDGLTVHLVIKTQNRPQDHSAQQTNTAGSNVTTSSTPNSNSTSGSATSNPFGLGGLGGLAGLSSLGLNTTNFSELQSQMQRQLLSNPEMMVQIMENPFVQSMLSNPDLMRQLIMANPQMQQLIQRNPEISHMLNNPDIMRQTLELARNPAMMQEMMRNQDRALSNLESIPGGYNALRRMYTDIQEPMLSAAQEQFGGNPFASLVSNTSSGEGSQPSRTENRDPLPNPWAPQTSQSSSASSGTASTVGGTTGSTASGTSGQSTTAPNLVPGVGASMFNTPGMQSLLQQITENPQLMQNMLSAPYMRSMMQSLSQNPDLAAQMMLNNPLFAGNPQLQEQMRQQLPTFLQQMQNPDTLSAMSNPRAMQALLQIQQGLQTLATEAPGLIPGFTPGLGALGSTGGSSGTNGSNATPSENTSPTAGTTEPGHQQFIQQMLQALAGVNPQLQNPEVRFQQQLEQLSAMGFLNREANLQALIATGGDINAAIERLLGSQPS
UniProt Q9NRR5, whole entry, looked up: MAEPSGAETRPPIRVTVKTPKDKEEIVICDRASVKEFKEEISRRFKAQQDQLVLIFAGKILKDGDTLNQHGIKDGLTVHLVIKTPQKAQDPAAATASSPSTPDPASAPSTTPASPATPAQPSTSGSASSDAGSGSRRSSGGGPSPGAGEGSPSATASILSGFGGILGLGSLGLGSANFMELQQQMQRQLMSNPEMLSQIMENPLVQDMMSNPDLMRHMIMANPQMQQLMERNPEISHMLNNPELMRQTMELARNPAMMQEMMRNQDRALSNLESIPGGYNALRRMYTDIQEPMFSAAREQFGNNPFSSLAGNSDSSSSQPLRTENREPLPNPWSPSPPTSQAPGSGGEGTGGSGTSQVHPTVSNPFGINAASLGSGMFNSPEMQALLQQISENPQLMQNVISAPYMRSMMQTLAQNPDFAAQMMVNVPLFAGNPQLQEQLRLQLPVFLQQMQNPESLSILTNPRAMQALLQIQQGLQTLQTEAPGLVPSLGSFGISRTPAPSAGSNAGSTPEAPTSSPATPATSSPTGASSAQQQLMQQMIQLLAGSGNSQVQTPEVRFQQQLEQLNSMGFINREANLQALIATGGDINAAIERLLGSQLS
UniProt P61081: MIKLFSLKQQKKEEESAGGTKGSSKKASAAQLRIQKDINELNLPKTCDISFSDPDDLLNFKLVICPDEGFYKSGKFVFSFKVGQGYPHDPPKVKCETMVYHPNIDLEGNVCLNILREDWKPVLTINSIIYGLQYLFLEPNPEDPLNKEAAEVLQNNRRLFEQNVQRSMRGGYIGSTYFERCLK
UniProt Q13885, whole entry, looked up: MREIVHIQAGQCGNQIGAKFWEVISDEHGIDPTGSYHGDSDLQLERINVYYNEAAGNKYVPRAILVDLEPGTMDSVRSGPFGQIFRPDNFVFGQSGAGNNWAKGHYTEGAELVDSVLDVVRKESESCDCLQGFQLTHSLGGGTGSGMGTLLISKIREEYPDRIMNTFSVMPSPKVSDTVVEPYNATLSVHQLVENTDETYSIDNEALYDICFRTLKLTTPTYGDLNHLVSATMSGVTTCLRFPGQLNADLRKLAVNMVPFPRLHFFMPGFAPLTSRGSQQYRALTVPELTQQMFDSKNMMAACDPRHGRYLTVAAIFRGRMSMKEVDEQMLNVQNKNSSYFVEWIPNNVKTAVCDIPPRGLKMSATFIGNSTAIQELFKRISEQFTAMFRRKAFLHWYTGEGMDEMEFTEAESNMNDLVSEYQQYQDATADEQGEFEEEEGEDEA
UniProt Q96J42: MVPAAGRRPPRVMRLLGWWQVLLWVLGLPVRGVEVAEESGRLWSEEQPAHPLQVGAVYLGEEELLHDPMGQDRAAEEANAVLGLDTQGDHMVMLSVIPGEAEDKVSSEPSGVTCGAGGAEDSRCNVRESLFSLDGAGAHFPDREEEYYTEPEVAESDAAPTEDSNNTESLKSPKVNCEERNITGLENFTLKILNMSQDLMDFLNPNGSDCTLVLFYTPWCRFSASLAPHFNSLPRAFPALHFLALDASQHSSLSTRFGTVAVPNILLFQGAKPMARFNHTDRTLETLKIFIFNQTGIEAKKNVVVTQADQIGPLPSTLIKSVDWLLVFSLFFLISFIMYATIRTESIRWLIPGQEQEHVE
UniProt Q16763: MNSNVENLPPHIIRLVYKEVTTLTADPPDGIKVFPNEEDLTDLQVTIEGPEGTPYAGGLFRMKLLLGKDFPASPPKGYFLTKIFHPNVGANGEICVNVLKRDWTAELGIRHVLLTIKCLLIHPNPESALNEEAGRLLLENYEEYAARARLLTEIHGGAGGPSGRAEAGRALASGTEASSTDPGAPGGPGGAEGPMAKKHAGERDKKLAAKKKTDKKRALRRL
UniProt P68366, whole entry, looked up: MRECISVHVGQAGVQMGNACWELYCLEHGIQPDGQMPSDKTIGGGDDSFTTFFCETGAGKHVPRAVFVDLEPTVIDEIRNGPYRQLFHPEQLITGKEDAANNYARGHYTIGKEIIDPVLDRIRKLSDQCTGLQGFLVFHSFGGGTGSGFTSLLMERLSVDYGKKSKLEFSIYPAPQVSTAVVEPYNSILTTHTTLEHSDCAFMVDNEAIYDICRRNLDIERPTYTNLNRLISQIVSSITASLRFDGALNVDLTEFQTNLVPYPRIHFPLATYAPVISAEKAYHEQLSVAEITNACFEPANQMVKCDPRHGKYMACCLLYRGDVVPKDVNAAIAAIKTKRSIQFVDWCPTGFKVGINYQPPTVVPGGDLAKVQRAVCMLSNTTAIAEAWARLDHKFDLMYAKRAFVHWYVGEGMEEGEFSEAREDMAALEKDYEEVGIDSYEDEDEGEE
UniProt P51668: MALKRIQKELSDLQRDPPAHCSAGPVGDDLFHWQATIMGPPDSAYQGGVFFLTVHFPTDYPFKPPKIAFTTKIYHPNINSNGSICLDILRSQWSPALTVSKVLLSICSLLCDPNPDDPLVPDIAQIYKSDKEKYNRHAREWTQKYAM
UniProt Q3B726, whole entry, looked up: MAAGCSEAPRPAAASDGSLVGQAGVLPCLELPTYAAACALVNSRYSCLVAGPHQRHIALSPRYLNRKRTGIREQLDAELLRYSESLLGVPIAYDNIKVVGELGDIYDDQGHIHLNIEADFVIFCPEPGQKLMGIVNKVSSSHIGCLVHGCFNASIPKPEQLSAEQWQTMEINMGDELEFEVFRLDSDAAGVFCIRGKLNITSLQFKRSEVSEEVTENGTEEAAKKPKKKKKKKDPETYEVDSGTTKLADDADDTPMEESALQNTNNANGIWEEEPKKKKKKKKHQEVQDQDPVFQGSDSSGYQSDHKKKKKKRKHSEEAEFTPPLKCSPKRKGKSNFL
UniProt P40222: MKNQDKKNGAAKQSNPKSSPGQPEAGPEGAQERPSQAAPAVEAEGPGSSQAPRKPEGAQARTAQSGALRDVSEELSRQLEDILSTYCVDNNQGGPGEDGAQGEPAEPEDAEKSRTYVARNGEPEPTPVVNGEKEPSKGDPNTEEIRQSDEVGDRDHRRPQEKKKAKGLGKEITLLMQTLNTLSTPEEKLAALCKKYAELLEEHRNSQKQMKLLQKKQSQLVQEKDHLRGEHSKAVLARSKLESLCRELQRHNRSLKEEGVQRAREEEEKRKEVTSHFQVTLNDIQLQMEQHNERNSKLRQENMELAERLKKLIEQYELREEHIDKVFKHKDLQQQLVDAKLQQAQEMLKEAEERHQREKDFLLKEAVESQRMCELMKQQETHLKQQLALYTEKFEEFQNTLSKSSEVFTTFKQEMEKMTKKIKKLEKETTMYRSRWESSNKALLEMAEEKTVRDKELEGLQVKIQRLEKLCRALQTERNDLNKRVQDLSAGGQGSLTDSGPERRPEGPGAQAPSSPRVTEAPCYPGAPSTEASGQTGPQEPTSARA
UniProt P83876: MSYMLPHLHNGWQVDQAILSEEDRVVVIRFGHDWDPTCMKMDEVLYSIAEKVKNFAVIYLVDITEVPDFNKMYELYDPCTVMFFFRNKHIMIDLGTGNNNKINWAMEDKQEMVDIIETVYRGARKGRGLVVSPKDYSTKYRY

Key:
Test in all cases: log2 fold change, soluble protein after heating vs DMSO (PISA); higher = thermal stabilisation; K562 lysate, 10 uM; active = over 0.2 and 3.5 SD of the protein, either way, in both replicates (recomputed)
[1] = compound: C#Cc1cccc(Nc2ncnc3cc(OCCOC)c(OCCOC)cc23)c1 [erlotinib]
How it was run: (§1)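 To prepare the extract, K562 pellets were dounce-homogenised in PBS pH 7.4 with 1 mM MgCl2, giving crude material at 1 mg/mL protein. This was treated with 10 μM compound for 30 min, then heated in aliquots for 3 min over 48°C-58°C before pooling and addition of NP-40 to 0.5% at 4°C. Centrifugation at 21,000xg for 90 min left soluble protein in the supernatant, which TMTpro 16plex LC-MS/MS quantified with equalised channel sums. Results are log-two fold changes in thermal stability compared with solvent controls, from duplicates.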

[2] = compound: C/C(=N\NC(=O)C1=CC(=CC=C1)S(=O)(=O)N2CCOCC2)/C3=C(C=CC(=C3)Cl)O
How it was run: as §1

[3] = compound: C1=CC(=CC=C1C2=NC3=C(N2)C=C(C=C3)C(=O)N)OC4=CC=C(C=C4)Cl
How it was run: as §1

[4] = compound: C1=CC2=C(C=CC(=C2)/C=C\3/C(=O)NC(=NCC4=CC=CS4)S3)N=C1
How it was run: as §1

[5] = compound: C1=CC2=NC=CN=C2C=C1/C=C/3\C(=O)NC(=O)S3
How it was run: as §1

[6] = compound: C1=CC=C(C=C1)C2=NC(=C(N2)C3=CC=NC=C3)C4=CC(=C(C=C4)Cl)O
How it was run: as §1

[7] = compound: C1=CC=C2C(=C1)C3=NNC4=CC=CC(=C43)C2=O
How it was run: as §1

[8] = compound: C1CCN(C1)C(=O)NC2=CC=CC(=C2)NC3=NC=C(C(=N3)NCCC4=CN=CN4)Br
How it was run: as §1

[9] = compound: C1CN(CCC1(CC2=CC=C(C=C2)Cl)N)C3=NC=NC4=C3C=CN4
How it was run: as §1

[10] = compound: C1COCCN1CCN2C3=CC=CC=C3N=C2NC(=O)C4=CC(=CC=C4)[N+](=O)[O-] [IRAK-1-4 Inhibitor I]
How it was run: as §1

[11] = compound: C=CC(=O)N1CCC[C@@H](n2nc(-c3ccc(Oc4ccccc4)cc3)c3c(N)ncnc32)C1 [ibrutinib]
How it was run: as §1

[12] = compound: CC(=O)c1cnc2ccc(-c3cc(Cl)c(O)c(Cl)c3)nc2c1N[C@H]1CC[C@H](CN(C)C)CC1
How it was run: as §1

[13] = compound: CC(C)(C)Cn1c(N)nc2ccc(-c3[nH]c(C(C)(C)C)nc3-c3ccc(F)cc3)nc21 [ralimetinib]
How it was run: as §1

[14] = compound: CC(C)(O)CC(=O)NCCn1ccc2ncnc(Nc3ccc(Oc4cccc(C(F)(F)F)c4)c(Cl)c3)c21
How it was run: as §1

[15] = compound: CC(C)C1=C2N=C(C=C(N2N=C1)NCC3=CC=CC=C3)NCCCCCCN
How it was run: as §1

[16] = compound: CC1=C(C(CC(=O)N1)C2=CC=C(C=C2)C(F)(F)F)C(=O)NC3=C(C=C4C(=C3)C=NN4)F
How it was run: as §1

[17] = compound: CC1=C(C2=C(C=C1)C(=O)C3=CC=CC=C3N2CCCN)C
How it was run: as §1

[18] = compound: CC1=C(C=C(C=C1)NC(=O)C2=CC(=CC=C2)C(C)(C)C#N)NC3=CC4=C(C=C3)N=CN(C4=O)C
How it was run: as §1

[19] = compound: CC1=C(C=C(C=C1)NC(=O)C2=CC(=CC=C2)N(C)C)NC(=O)C3=CC=C(C=C3)O
How it was run: as §1

[20] = compound: CC1=CC=C(C=C1)SC2=C3C=C(SC3=CN=C2)C(=O)N
How it was run: as §1

Measured: log2 fold change

TXNDC9 (UniProt O14530)
inactive: [1] -0.007 | [2] 0.052 | [3] 0.007 | [4] -0.01 | [5] -0.006 | [6] -0.008 | [7] 0.012 | [8] 0 | [9] 0.017 | [10] -0.041 | [11] -0.03 | [12] 0.008 | [13] -0.006 | [14] -0.017 | [15] -0.018 | [16] -0.011 | [17] -0.036 | [18] -0.024 | [19] 0.029 | [20] 0.012

UBE2R2 (UniProt Q712K3)
inactive: [1] -0.032 | [2] -0.11 | [3] -0.025 | [4] -0.012 | [5] -0.003 | [6] -0.003 | [7] 0.021 | [8] 0.066 | [9] 0.04 | [10] -0.013 | [11] -0.014 | [12] 0.029 | [13] 0.008 | [14] 0.011 | [15] 0.003 | [16] -0.054 | [17] 0.009 | [18] -0.015 | [19] 0.022 | [20] 0.051

UBE2J1 (UniProt Q9Y385)
inactive: [1] 0.04 | [2] -0.194 | [3] -0.013 | [4] -0.034 | [5] 0.008 | [6] -0.046 | [7] 0.044 | [8] -0.046 | [9] 0.114 | [10] -0.007 | [11] 0.025 | [12] 0.012 | [13] -0.058 | [14] -0.094 | [15] -0.01 | [16] -0.016 | [17] 0.013 | [18] 0.031 | [19] 0.058 | [20] 0.01

UBE4A isoform 2 (UniProt Q14139)
inactive: [1] 0.031 | [2] 0.091 | [3] 0.023 | [4] 0.013 | [5] -0.023 | [6] -0.021 | [7] -0.082 | [8] -0.028 | [9] 0.035 | [10] 0.004 | [11] -0.025 | [12] 0.018 | [13] 0.038 | [14] -0.038 | [15] -0.023 | [16] 0.03 | [17] 0.019 | [18] -0.009 | [19] 0.034 | [20] -0.009

TXNDC5 (UniProt Q8NBS9)
inactive: [1] -0.016 | [2] -0.004 | [3] 0.022 | [4] -0.026 | [5] 0.018 | [6] -0.018 | [7] 0.02 | [8] 0.025 | [9] 0.021 | [10] 0.012 | [11] 0 | [12] -0.005 | [13] -0.024 | [14] -0.011 | [15] -0.004 | [16] -0.013 | [17] 0.014 | [18] 0.017 | [19] -0.032 | [20] -0.015

UBQLN1 (UniProt Q9UMX0)
inactive: [1] 0 | [2] 0.021 | [3] 0.01 | [4] 0.032 | [5] 0.003 | [6] 0.02 | [7] 0.019 | [8] -0.005 | [9] 0.083 | [10] 0.019 | [11] 0.087 | [12] -0.017 | [13] 0.019 | [14] -0.04 | [15] -0.035 | [16] -0.02 | [17] -0.028 | [18] 0.017 | [19] 0.007 | [20] -0.011

UBQLN4 (UniProt Q9NRR5)
inactive: [1] -0.031 | [2] 0.068 | [3] 0.047 | [4] 0.016 | [5] -0.019 | [6] 0.025 | [7] 0.018 | [8] 0.022 | [9] 0.031 | [10] 0.02 | [11] 0.175 | [12] 0.006 | [13] 0.019 | [14] -0.036 | [15] 0.012 | [16] -0.014 | [17] -0.023 | [18] 0.024 | [19] 0.017 | [20] -0.01

UBE2M (UniProt P61081)
inactive: [1] -0.009 | [2] 0.074 | [3] -0.017 | [4] 0.01 | [5] -0.013 | [6] 0.005 | [7] 0.004 | [8] 0 | [9] 0.027 | [10] 0.006 | [11] 0.005 | [12] -0.016 | [13] -0.022 | [14] 0.017 | [15] -0.003 | [16] -0.035 | [17] -0.016 | [18] 0.055 | [19] -0.032 | [20] -0.009

TUBB2A (UniProt Q13885)
inactive: [1] 0.008 | [2] 0.04 | [3] 0.004 | [4] -0.021 | [5] -0.028 | [6] -0.008 | [7] -0.03 | [8] 0.014 | [9] 0.026 | [10] 0.019 | [11] 0.005 | [12] 0.014 | [13] 0.032 | [14] -0.005 | [15] 0.027 | [16] 0.02 | [17] 0.001 | [18] -0.011 | [19] 0.032 | [20] 0.001

TXNDC15 (UniProt Q96J42)
inactive: [1] 0.019 | [2] -0.163 | [3] 0.071 | [4] -0.003 | [5] -0.039 | [6] -0.01 | [7] -0.086 | [8] 0.038 | [9] 0.117 | [10] -0.045 | [11] -0.059 | [12] -0.002 | [13] -0.014 | [14] -0.044 | [15] -0.017 | [16] 0.021 | [17] 0.031 | [18] 0.068 | [19] 0.019 | [20] -0.035

UBE2S (UniProt Q16763)
inactive: [1] 0.034 | [2] 0.026 | [3] 0.018 | [4] -0.01 | [5] 0.016 | [6] 0.003 | [7] 0.004 | [8] 0.002 | [9] 0 | [10] 0.012 | [11] -0.002 | [12] 0.017 | [13] 0.028 | [14] -0.023 | [15] 0.025 | [16] -0.002 | [17] -0.022 | [18] 0.019 | [19] -0.014 | [20] -0.022

TUBA4A (UniProt P68366)
inactive: [1] 0.074 | [2] 0.019 | [3] -0.017 | [4] -0.034 | [5] -0.01 | [6] -0.036 | [7] -0.017 | [8] 0 | [9] 0.036 | [10] 0.032 | [11] -0.012 | [12] 0.023 | [13] 0.012 | [14] 0.017 | [15] 0.023 | [16] -0.031 | [17] -0.013 | [18] 0.017 | [19] -0.017 | [20] 0.012

UBE2D1 (UniProt P51668)
inactive: [1] -0.043 | [2] 0.008 | [3] 0.072 | [4] -0.007 | [5] -0.032 | [6] 0.008 | [7] -0.006 | [8] -0.042 | [9] 0.015 | [10] -0.038 | [11] -0.033 | [12] 0.017 | [13] -0.009 | [14] 0.073 | [15] 0.01 | [16] -0.03 | [17] -0.007 | [18] -0.002 | [19] 0.043 | [20] -0.007

TWISTNB (UniProt Q3B726)
inactive: [1] 0.008 | [2] -0.154 | [3] 0.032 | [4] -0.006 | [5] -0.005 | [6] -0.018 | [7] -0.025 | [8] 0.003 | [9] 0.06 | [10] -0.008 | [11] 0.033 | [12] -0.057 | [13] 0.023 | [14] -0.026 | [15] 0.048 | [16] -0.029 | [17] 0.007 | [18] -0.051 | [19] -0.015 | [20] 0.003

TXLNA (UniProt P40222)
inactive: [1] -0.005 | [2] -0.003 | [3] 0.028 | [4] -0.006 | [5] 0.01 | [6] 0.035 | [7] 0.01 | [8] 0.032 | [9] 0.006 | [10] 0.004 | [11] -0.003 | [12] 0.006 | [13] 0.002 | [14] 0.017 | [15] 0.022 | [16] -0.01 | [17] 0.017 | [18] -0.026 | [19] -0.004 | [20] -0.009

Two records drawn at random from the list so far, as already listed:
UBE2M (UniProt P61081)
inactive: [1] -0.009 | [2] 0.074 | [3] -0.017 | [4] 0.01 | [5] -0.013 | [6] 0.005 | [7] 0.004 | [8] 0 | [9] 0.027 | [10] 0.006 | [11] 0.005 | [12] -0.016 | [13] -0.022 | [14] 0.017 | [15] -0.003 | [16] -0.035 | [17] -0.016 | [18] 0.055 | [19] -0.032 | [20] -0.009

UBE2S (UniProt Q16763)
inactive: [1] 0.034 | [2] 0.026 | [3] 0.018 | [4] -0.01 | [5] 0.016 | [6] 0.003 | [7] 0.004 | [8] 0.002 | [9] 0 | [10] 0.012 | [11] -0.002 | [12] 0.017 | [13] 0.028 | [14] -0.023 | [15] 0.025 | [16] -0.002 | [17] -0.022 | [18] 0.019 | [19] -0.014 | [20] -0.022

(further entries)

TXNL4A (UniProt P83876)
inactive: [1] 0.001 | [2] 0.039 | [3] 0.049 | [4] 0.012 | [5] 0 | [6] 0.02 | [7] -0.026 | [8] -0.01 | [9] 0.016 | [10] 0.003 | [11] -0.026 | [12] -0.009 | [13] -0.019 | [14] -0.041 | [15] -0.03 | [16] -0.003 | [17] 0.027 | [18] -0.002 | [19] 0.007 | [20] 0.002
